Measurements published in PubChem BioAssay AID651768 (National Center for Advancing Translational Sciences (NCATS), 2012).
Screen size: about 360,000 compounds; about 1,700 (0.47%) were called active. This list was built around the results that the source calls inconclusive (neither active nor inactive); the mix of calls is not that of the screen. Calls come from the whole dose curve; as a rule, active = well fitted inhibition curve with a large enough effect; inconclusive = small, poorly fitted or top-dose-only effect; inactive = no such curve, though single readings can be large or run the other way. Potencies beside an inconclusive call are fits to weak or partial responses and may not hold up.
% is set by controls: 0 for no effect and ±100 for the full control effect; potency is the fitted concentration of half-maximal effect.
Note: nearly all actives have a fitted effect of over 55% in size.

The chains behind the UniProt entries cited, without tags or fusion partners.
UniProt Q14191, whole entry, looked up: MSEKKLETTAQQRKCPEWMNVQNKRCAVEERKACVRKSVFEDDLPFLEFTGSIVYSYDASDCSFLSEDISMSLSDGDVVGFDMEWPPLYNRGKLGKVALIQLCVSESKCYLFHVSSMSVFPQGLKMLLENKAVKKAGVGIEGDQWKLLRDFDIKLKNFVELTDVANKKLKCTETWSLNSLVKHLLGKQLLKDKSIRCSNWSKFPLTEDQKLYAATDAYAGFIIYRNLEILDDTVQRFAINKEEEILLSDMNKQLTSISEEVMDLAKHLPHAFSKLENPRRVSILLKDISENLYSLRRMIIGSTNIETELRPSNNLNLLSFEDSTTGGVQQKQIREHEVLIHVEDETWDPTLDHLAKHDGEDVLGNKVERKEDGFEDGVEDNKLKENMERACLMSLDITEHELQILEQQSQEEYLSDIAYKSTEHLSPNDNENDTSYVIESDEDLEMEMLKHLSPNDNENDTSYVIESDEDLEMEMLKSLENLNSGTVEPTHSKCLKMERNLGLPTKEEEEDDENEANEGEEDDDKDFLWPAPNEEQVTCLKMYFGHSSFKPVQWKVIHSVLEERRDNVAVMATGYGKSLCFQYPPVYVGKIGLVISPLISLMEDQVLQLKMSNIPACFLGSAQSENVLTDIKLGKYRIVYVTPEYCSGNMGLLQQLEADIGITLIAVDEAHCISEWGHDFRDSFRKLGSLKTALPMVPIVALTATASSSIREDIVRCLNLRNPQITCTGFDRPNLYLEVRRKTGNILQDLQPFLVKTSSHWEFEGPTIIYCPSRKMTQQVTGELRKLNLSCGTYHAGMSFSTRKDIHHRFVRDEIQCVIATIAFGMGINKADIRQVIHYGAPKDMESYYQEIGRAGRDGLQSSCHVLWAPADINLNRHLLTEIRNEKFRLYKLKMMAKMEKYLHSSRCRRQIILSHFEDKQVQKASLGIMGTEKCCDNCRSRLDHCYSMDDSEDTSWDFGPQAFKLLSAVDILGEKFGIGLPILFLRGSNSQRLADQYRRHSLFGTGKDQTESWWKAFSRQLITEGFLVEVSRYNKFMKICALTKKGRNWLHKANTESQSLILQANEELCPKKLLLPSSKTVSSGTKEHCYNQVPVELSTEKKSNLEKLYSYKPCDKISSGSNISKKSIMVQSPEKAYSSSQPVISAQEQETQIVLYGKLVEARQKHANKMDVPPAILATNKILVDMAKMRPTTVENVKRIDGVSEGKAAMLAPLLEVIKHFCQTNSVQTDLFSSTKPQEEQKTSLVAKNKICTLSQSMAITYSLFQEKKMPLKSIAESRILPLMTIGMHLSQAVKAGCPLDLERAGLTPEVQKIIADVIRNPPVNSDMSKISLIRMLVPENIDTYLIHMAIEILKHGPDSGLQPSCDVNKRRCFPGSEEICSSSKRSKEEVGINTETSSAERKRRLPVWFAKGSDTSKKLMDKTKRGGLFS

What follows are compounds tested against Bifunctional 3'-5' exonuclease/ATP-dependent helicase WRN (Homo sapiens) (UniProt Q14191) (assay: qHTS for Inhibitors of WRN Helicase). Settings: WRN helicase unwinding, fluorescent forked duplex, kinetic; activity change, negative = inhibition: at 114 µM (top of the series) unless noted.
Procedure, shortened: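 Enzyme (20 nM final) and test compound sit together 15 min at room temperature before substrate addition. Substrate is a single-forked duplex oligonucleotide (100 nM) labelled with fluorophore and quencher, with 2 mM ATP; helicase unwinding raises red fluorescence, read kinetically.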
For `COc1cc(NC(=O)c2cc3c(C)nc4ccccc4c3o2)cc(OC)c1OC`, the Potency was inconclusive: 31.6 µM [inhibitor, partial curve]. In the case of `CN1CCN(C2=C(Cl)C(=O)C(c3cnc(N4CCCCC4)s3)=C(Cl)C2=O)CC1`, the Potency is reported as inconclusive: 56.2 µM [inhibitor, partial curve]. `c1cnc2nc3c4ccccc4c4ccccc4c3nc2c1` was tested, and the Potency was inconclusive: 35.5 µM [inhibitor, partial curve]. `Cc1ccc(-n2c(SCC(N)=O)nnc2-c2ccc(S(=O)(=O)N3CCCCC3)cc2)c(C)c1` was tested, and the Potency was “inactive”. With `O=C1C(=C2CCCCC2)SC(=S)N1Cc1ccco1` the Potency was inconclusive: 56.2 µM [inhibitor, partial curve]. `Cn1nnnc1SCC1=C(C(=O)O)N2C(=O)C(NC(=O)C3CC3c3ccccc3)C2SC1` (stereo not given) was tested, and the Potency was inconclusive: 22.4 µM [inhibitor, single point]. `Nc1ccc2nc3c(=O)n(C4CCCCC4)c(=O)[nH]c3nc2c1` was tested, and the Potency was “inactive”. In the case of `Cc1ccc(-c2sc(-c3cccnc3)nc2CC(=O)O)cc1`, the Potency is reported as “inactive”. With `CN(C)c1ccc(/C=C2\N=C(c3ccc(Cl)c([N+](=O)[O-])c3)NC2=O)cc1` the Potency was inconclusive: 17.8 µM [inhibitor, partial curve]. In the case of `CN(C)c1ccc(/C=C2\C(=N)N3N=C(CC(=O)N4CCCCC4)SC3=NC2=O)cc1`, the Potency is reported as inconclusive: 14.1 µM [inhibitor, full curve, poor fit]. For `CC(C)C(Cl)=NOC(=O)Nc1ccc(S(N)(=O)=O)cc1`, the Potency was inconclusive: 15.8 µM [inhibitor, full curve]. In the case of `CCN(CC)c1ccc(NC(=O)COc2ccc(-n3cnnn3)cc2)cc1`, the Potency is reported as “inactive”. For `CC[C@]12c3[nH]c4cc(-c5ccco5)ccc4c3CCN1C(=O)[C@@H](CC(=O)NCc1ccco1)C[C@@H]2C(=O)N1CCN(C(=O)c2ccco2)CC1`, the activity change, negative = inhibition was inactive: -2.88% [at 11.6 µM]. `Cc1cccc(N2CC(C(=O)Nc3nnc(SCC(=O)NCC4CCCO4)s3)CC2=O)c1` (stereo not given) was tested, and the Potency was inconclusive: 15.8 µM [inhibitor, full curve]. In the case of `O=C(NN=C1C2CC3CC1CC(Cl)(C3)C2)c1ccccn1`, the Potency is reported as “inactive”. `Cc1cc(C2C(C#N)=C(N)SC(N)=C2C#N)c(C)s1` was tested, and the Potency was inconclusive: 56.2 µM [inhibitor, partial curve, poor fit]. With `Cc1cc2oc(=O)cc(CN3CCOCC3)c2cc1C(C)C` the Potency was inconclusive: 89.1 µM [inhibitor, single point]. `O=C(CSc1ncccn1)Nc1ccc(N2CCOCC2)cc1` was tested, and the Potency was “inactive”. With `O=C1N[C@@H](c2ccccc2)COC(=O)[C@@H](Cc2ccc(F)cc2)C/C=C\C[C@H]1CC(=O)N(CCO)Cc1ccccc1` the Potency was inconclusive: 89.1 µM [inhibitor, single point]. `Cn1cc(/C=C2\SC(=S)N(NC(=O)c3cccc(Cl)c3)C2=O)c2ccccc21` was tested, and the Potency was active: 20 µM. In the case of `CCOc1ccccc1NC(=O)CCS(=O)(=O)c1ccc(Br)cc1`, the Potency is reported as active: 50.1 µM. In the case of `COc1ccc(-c2cc(C(=O)NC(Cc3c[nH]c4ccccc34)C(=O)O)c(C)o2)cc1OC` (stereo not given), the Potency is reported as inconclusive: 56.2 µM [inhibitor, partial curve, poor fit]. With `CCN(CC)CCC(=O)Nc1cccc2c1C(=O)c1ccccc1C2=O` the Potency was inconclusive: 79.4 µM [inhibitor, partial curve]. `Nc1ccc2nc(-c3ccc(N)c(Cl)c3)[nH]c2c1` was tested, and the Potency was inconclusive: 44.7 µM [inhibitor, partial curve]. For `CCOC(=O)CSC1=NC(=O)/C(=C/c2ccc(OC)cc2)S1`, the Potency was active: 50.1 µM. With `CCOc1ccc2nc(NC3=NC(c4ccc(OC)cc4)CC(=O)N3)nc(C)c2c1` (stereo not given) the Potency was active: 50.1 µM. In the case of `O=C(N/C(=C/c1ccco1)C(=O)N1CCc2ccccc21)c1ccco1`, the Potency is reported as inconclusive: 39.8 µM [inhibitor, single point]. `CC(=O)OCCN(C)c1cc(SC(C)C)c2nonc2c1[N+](=O)[O-]` was tested, and the Potency was “inactive”. In the case of `O=C(CSc1nnc(SCc2ccccc2)s1)N/N=C/c1c[nH]c2ccccc12`, the Potency is reported as inconclusive: 50.1 µM [inhibitor, partial curve]. For `CN(CC(=O)Nc1ccc(F)cc1)C(=O)c1cc([N+](=O)[O-])ccc1N1CCOCC1`, the Potency was “inactive”. For `CCCn1c(=O)c(Cc2ccccc2)c(O)c2ccccc21`, the activity change, negative = inhibition was inconclusive: -36.6% [inhibitor] [at 57.1 µM]. In the case of `Cc1cccc2nc(CSc3nc4ccc([N+](=O)[O-])cc4[nH]3)c(Br)n12`, the Potency is reported as inconclusive: 12.6 µM [inhibitor, partial curve]. `COC(=O)c1cnc(NC(=O)C2(C)CCCN(C(C)=O)C2)s1` (stereo not given) was tested, and the Potency was “inactive”. With `N#Cc1ccccc1NC(=O)COC(=O)c1c[nH]c2ccccc12` the Potency was inconclusive: 25.1 µM [inhibitor, full curve, poor fit]. In the case of `N#C/C(=C\c1ccc(-c2ccc(C(=O)O)cc2)o1)C(=O)Nc1ccc(F)cc1`, the Potency is reported as active: 56.2 µM. In the case of `O=C(CCCN1C(=O)c2cccc3cccc(c23)C1=O)N1CCN(Cc2ccc3c(c2)OCO3)CC1`, the Potency is reported as “inactive”. For `O=C(N/N=C/c1ccc(-c2ccccc2[N+](=O)[O-])o1)c1cccnc1`, the Potency was inconclusive: 50.1 µM [inhibitor, partial curve]. For `Cc1cc(-c2ccccc2)nc2cc(C(N)=O)nn12`, the Potency was inconclusive: 79.4 µM [inhibitor, single point]. For `COc1ccccc1N=c1oc2cc(O)ccc2cc1C(N)=O`, the Potency was inconclusive: 35.5 µM [inhibitor, full curve, poor fit]. For `CN1C(=O)/C(=C/c2ccccc2OCc2ccc(C(=O)O)cc2)NC1=S`, the Potency was “inactive”. In the case of `O=C1CCCC(O)=C1N=Nc1ccc(C(=O)O)cc1`, the Potency is reported as active: 31.6 µM. For `Cc1ccc(S(=O)(=O)/N=C2/C=C(Sc3ncn[nH]3)C(=O)c3ccccc32)cc1`, the Potency was active: 31.6 µM. With `CCOc1ccccc1-c1cc(-c2n[nH]c(=S)n2CC)c2ccccc2n1` the Potency was inconclusive: 50.1 µM [inhibitor, partial curve]. `O=C(/C=C/c1cccc([N+](=O)[O-])c1)c1ccc([N+](=O)[O-])o1` was tested, and the Potency was “inactive”. In the case of `O=C(Nc1ccc(NC(=O)c2cccs2)cc1)c1ccc(Br)o1`, the Potency is reported as inconclusive: 50.1 µM [inhibitor, partial curve]. For `O=c1[nH][nH]c2c(N=Cc3ccccc3O)ccc(F)c12`, the Potency was active: 14.1 µM. With `S=C(Nc1ccc(Br)cc1Cl)Nn1cnnc1` the Potency was “inactive”. With `CC(/C=C1\SC(=S)N(NS(=O)(=O)c2ccc(C)cc2)C1=O)=C\c1ccccc1` the Potency was inconclusive: 50.1 µM [inhibitor, partial curve]. With `COc1c(Br)cc2c(C)c(C(=O)O)oc2c1Br` the Potency was inconclusive: 100 µM [inhibitor, partial curve, poor fit]. In the case of `CCOC(=O)c1sc(N2C(=O)C(O)=C(C(=O)c3ccco3)C2c2ccco2)nc1C` (stereo not given), the activity change, negative = inhibition is reported as inactive: 3.72% [at 11.6 µM]. With `COc1cccc(CN2CCC(N(CCc3ccccc3)Cc3ccccc3)CC2)c1OC` the Potency was inconclusive: 44.7 µM [inhibitor, partial curve]. `COc1ccc(C(=O)N2CCCC(C)(C(=O)NS(=O)(=O)C3CC3)C2)cc1` (stereo not given) was tested, and the Potency was “inactive”. `Cc1ccc2nc(/C(C#N)=C\c3ccc(N4CCOCC4)o3)[nH]c2c1` was tested, and the Potency was active: 44.7 µM. For `O=c1/c(=C/c2ccc(CNS(=O)(=O)c3ccccc3)o2)sc2n1CCN=2`, the Potency was “inactive”. For `N#CCC(=O)Nc1ccc(C(=O)NCC(c2ccco2)N2CCCCC2)cc1` (stereo not given), the Potency was inconclusive: 89.1 µM [inhibitor, single point]. For `O=[N+]([O-])c1ccc(S(=O)(=O)N2CCN=C2SCc2ccc(F)cc2)cc1`, the Potency was “inactive”. For `COc1cc(OC)cc(C(=O)NCC(=O)OCC(=O)NCc2ccco2)c1`, the Potency was inconclusive: 14.1 µM [inhibitor, partial curve]. `N#Cc1c(Nc2ccccc2C(F)(F)F)s[nH]c1=O` was tested, and the Potency was “inactive”. In the case of `COc1ccc(CS(=O)(=O)/C(Cl)=C(/Cl)C(=O)Nc2ccc(OC)nc2)cc1`, the Potency is reported as inconclusive: 56.2 µM [inhibitor, partial curve]. For `O=C1NN(c2cccc(Br)c2)C(=O)/C1=C/c1ccc(-c2cc([N+](=O)[O-])ccc2O)o1`, the Potency was inconclusive: 35.5 µM [inhibitor, partial curve]. In the case of `c1ccc(SSc2ccccn2)nc1`, the Potency is reported as active: 22.4 µM. In the case of `Cc1cc2cc(CNC(=O)c3ccc(Br)o3)ccc2n1C`, the Potency is reported as inconclusive: 79.4 µM [inhibitor, partial curve]. For `Cc1ccc(NC(=O)CCc2nc3sc4c(c3c(=O)[nH]2)CCCC4)c(Br)c1`, the Potency was inconclusive: 50.1 µM [inhibitor, partial curve]. With `COc1ccc(CCN2C(=O)CC(Cc3ccc(C)cc3)C2=O)cc1OC` (stereo not given) the Potency was inconclusive: 79.4 µM [inhibitor, single point]. `Cc1ccc(NC(=O)C2CC(=O)N(Cc3ccccc3)C2)cc1S(=O)(=O)N1CCCCCC1` (stereo not given) was tested, and the Potency was inconclusive: 39.8 µM [inhibitor, single point]. In the case of `O=C1CSC(=S)N1N=Cc1ccccc1O`, the Potency is reported as active: 22.4 µM. In the case of `O=C(CS(=O)(=O)Cc1ccccc1)N1CCc2ccccc2C1`, the Potency is reported as inconclusive: 17.8 µM [inhibitor, full curve, poor fit]. For `O=C(O)Cc1ccc(C(=O)CSc2ccccc2)s1`, the Potency was inconclusive: 50.1 µM [inhibitor, partial curve]. With `Cc1cccc(NC(=O)CSc2nnc(CNC(=O)c3ccc(S(=O)(=O)N(C)C)cc3)n2-c2ccccc2)c1` the Potency was inconclusive: 11.2 µM [inhibitor, partial curve]. For `FC(F)(F)c1ccc(Cl)c(-n2c(-c3cc(C4CC4)[nH]n3)n[nH]c2=S)c1`, the Potency was inconclusive: 7.08 µM [inhibitor, full curve, poor fit].
